{
  "source": "paper PMC9371972",
  "about": "“Cryo-EM structure of the human CST–Polα/primase complex in a recruitment state” (Nature Structural & Molecular Biology, 2022)",
  "target": "T1, CTC1 (subunit of the CST complex) (human, UniProt Q2NKJ3 1-1217)",
  "T1 construct": "human CTC1; the CTC1 chain of m1; Always present with STN1 and TEN1; written alone for subunit-to-subunit contacts; source: Tni insect cells (baculovirus), purified as part of CST; not shown: His6, N-terminal, cleaved; MBP, N-terminal, cleaved",
  "T1 sequence": "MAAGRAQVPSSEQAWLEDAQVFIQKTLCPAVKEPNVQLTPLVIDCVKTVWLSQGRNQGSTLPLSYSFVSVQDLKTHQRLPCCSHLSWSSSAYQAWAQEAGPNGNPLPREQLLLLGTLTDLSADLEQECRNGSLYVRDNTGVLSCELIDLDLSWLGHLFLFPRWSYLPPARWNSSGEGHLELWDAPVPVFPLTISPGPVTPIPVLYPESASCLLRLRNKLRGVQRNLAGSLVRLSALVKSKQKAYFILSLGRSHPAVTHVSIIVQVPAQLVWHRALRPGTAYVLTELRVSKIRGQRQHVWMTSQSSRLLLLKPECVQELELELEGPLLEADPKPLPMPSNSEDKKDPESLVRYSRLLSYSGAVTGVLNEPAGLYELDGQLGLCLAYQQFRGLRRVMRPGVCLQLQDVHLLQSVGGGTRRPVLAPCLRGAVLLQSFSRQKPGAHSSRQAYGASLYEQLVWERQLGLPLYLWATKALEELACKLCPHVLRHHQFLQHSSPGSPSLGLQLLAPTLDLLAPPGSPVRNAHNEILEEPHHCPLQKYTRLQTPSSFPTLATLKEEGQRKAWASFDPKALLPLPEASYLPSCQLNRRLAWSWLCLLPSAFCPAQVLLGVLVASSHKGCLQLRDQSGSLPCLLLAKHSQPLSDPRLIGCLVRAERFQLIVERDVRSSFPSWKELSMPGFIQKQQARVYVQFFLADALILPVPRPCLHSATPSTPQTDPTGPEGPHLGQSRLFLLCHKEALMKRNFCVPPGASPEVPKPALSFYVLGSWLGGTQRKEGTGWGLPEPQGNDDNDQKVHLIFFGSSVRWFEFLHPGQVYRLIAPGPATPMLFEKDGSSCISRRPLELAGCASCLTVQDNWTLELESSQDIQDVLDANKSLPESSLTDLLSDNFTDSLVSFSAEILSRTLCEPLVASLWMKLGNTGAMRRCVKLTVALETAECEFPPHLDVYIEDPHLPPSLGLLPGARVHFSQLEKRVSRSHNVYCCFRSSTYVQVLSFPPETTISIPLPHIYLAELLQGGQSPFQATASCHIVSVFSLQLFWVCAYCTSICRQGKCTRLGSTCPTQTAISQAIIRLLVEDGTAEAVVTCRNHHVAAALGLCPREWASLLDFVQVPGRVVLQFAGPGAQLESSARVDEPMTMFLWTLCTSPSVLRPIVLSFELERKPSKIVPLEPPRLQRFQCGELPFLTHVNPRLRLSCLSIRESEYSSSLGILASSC",
  "assay": "cryo-EM structure; CST and Polα/primase (PP^FL or PP^ΔN) mixed equimolar (1.5 μM each) with (GGTTAG)3 ssDNA, cross-linked by GraFix (glutaraldehyde, glycerol gradient), 20 mM HEPES pH 7.5, 150 mM NaCl, 10 mM MgCl2, 0.5 mM TCEP; both purified",
  "note": "Results are given in words; binding and its absence hold for the method and conditions named. Binding calls can cover weak binding; strength is not graded here.",
  "data": [
    {"substance": "POLA1^ΔN (subunit of PP^ΔN) (human) (domain or fragment)", "values": [
      {"measurement": "binding", "result": "binds"}
    ]}
  ]
}
